Experimental data as given in patent US7001906B2, “Pyrido-pyrido-pyrrolo pyrrolo-indole and pyrido-pyrrolo pyrrolo carbazole derivatives, method for the production thereof and pharmaceutical compositions containing said derivatives” (Les Laboratoires Servier, priority 2001, dated 2006).
Some results were stated once for a whole list of compounds, not compound by compound. For part of these data: At least one compound was matched to its structure with a doubt left.

Experiments:
[1] = test system: epidermoid carcinoma A431; assay: In vitro cytotoxicity on human cell lines: epidermoid carcinoma A431; type: cell-based; settings: epidermoid carcinoma A431, incubation 4 days
Protocol: (§1) Murine leukaemia L1210 was used in vitro. The cells are cultured in RPMI 1640 complete culture medium containing 10% foetal calf serum, 2 mM glutamine, 50 units/ml of penicillin, 50 μg/ml of streptomycin and 10 mM Hepes, pH: 7.4. The cells are distributed on microplates and exposed to the cytotoxic compounds for 4 doubling periods, or 48 hours. The number of viable cells is then quantified by means of a colorimetric assay, the Microculture Tetrazolium Assay (J. Carmichael et al., Cancer Res., 47, 936–942, (1987)). The results are expressed as IC50, the concentration of cytotoxic agent which inhibits the proliferation of the treated cells by 50%.
(§2) The compounds of the invention were also tested on human cell lines according to the same experimental protocol as that described for murine leukaemia L1210, but with incubation times of 4 days instead of 2 days.

[2] = test system: small cell lung carcinoma H 69; assay: In vitro cytotoxicity on human cell lines: small cell lung carcinoma H 69; type: cell-based; settings: small cell lung carcinoma H 69, incubation 4 days
Protocol: as §1, §2

neuroblastoma SK-N-MC = assay: In vitro cytotoxicity on human cell lines: neuroblastoma SK-N-MC; type: cell-based; settings: incubation 4 days
Protocol: as §1, §2

L1210 cells = assay: Action on the cell cycle (propidium iodide, G2+M accumulation); type: cell-based, murine; settings: concentration of less than 0.5 μM, control: 20%

Compound	IC50 [1] [µM]	IC50 [2] [µM]	IC50 (neuroblastoma SK-N-MC) [µM]	percentage of the cells that accumulate in the G2+M phase after 21 hours (L1210 cells)
CN1C(=O)c2c(c3c4cccnc4n([C@@H]4O[C@H](CO)[C@@H](O)[C@H](O)[C@H]4O)c3c3[nH]c4ncccc4c23)C1=O [Example 15, 6-methyl-12-(β-D-glucopyranosyl)-12,13-dihydro-5H-pyrido[2,3-b]-pyrido[3′,21′:4,5]pyrrolo[3,2-g]pyrrolo[3,4-e]indole-5,7(6H)-dione]	< 1	< 1	< 1	–
O=C1NC(=O)c2c1c1c3cc(Br)ccc3[nH]c1c1c2c2cccnc2n1[C@@H]1O[C@H](CO)[C@@H](O)[C@H](O)[C@H]1O [Example 4, 9-bromo-13-(β-D-glucopyranosyl)-12,13-dihydro-5H-pyrido-[3′,2′:4,5]pyrrolo[2,3-a]pyrrolo [3,4-c]carbazole-5,7(6H)-dione]	–	–	–	at least 80%
O=C1NC(=O)c2c1c1c3ccccc3[nH]c1c1c2c2cccnc2n1[C@@H]1O[C@H](CO)[C@@H](O)[C@H](O)[C@H]1O [Example 3, 13-(β-D-glucopyranosyl)-12,13-dihydro-5H-pyrido[3′,2′:4,5]pyrrolo-[2,3-a]pyrrolo[3,4-c]carbazole-5,7(6H)-dione]	–	–	–	at least 80%
O=C1NC(=O)c2c1c1c3cc([N+](=O)[O-])ccc3[nH]c1c1c2c2cccnc2n1[C@@H]1O[C@H](CO)[C@@H](O)[C@H](O)[C@H]1O [Example 5, 9-nitro-13-(β-D-glucopyranosyl)-12,13-dihydro-5H-pyrido-[3′,2′:4,5]pyrrolo[2,3-a]pyrrolo[3,4-c]carbazole-5,7(6H)-dione]	–	–	–	at least 80%
